PubChem BioAssay AID743255 (National Center for Advancing Translational Sciences (NCATS), 2014)
Among all 390,000 compounds or so, about 910 (0.23%) were called active. The shares of active, inactive and inconclusive entries below differ from those in the screen. The call rests on the fitted dose curve; in most records, active means well fitted inhibition curve with a large enough effect; inconclusive means small, poorly fitted or top-dose-only effect; inactive means no such curve, though single readings can be large or run the other way. Where the call is inconclusive, the potency comes from a doubtful curve fit.

Protein sequences, listed by entry. Tags and fused reporters are not part of them. Lines headed by an entry give the natural chain unless they say otherwise; changes in a name come on top.
UniProt O94782: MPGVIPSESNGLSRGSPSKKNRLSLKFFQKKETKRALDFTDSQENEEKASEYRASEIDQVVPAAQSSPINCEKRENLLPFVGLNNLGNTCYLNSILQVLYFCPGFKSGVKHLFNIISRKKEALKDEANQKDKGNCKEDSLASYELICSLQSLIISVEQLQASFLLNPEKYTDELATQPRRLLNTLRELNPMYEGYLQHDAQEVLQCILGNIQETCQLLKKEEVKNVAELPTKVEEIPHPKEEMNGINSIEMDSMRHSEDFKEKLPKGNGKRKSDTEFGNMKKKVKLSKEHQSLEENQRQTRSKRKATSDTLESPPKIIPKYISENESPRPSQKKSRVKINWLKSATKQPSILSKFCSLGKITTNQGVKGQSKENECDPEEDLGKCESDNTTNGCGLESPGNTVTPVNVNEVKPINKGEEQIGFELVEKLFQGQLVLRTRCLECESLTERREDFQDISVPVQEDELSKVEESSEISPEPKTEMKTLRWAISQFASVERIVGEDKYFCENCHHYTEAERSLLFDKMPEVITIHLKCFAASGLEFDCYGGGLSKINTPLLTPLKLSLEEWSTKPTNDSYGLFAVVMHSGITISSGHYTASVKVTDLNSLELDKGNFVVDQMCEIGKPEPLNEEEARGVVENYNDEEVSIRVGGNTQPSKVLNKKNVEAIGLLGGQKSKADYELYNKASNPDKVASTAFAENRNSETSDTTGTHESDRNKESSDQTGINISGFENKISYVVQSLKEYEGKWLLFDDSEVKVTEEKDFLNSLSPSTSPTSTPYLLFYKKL

The compounds below were run against Ubiquitin carboxyl-terminal hydrolase 1 (Homo sapiens) (UniProt O94782) (assay: Inhibitors of USP1/UAF1: Primary Screen). Conditions: recombinant USP1/UAF1, Ub-Rhodamine cleavage fluorescence; series mostly up to 57.1 µM.
Method in brief: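 USP1/UAF1 complex (1 nM) preincubated 15 min at room temperature with compound, then Ub-Rho substrate (150 nM final) added. Kinetic fluorescence at 480/540 nm over 6 reads at 60 s intervals; 50 mM HEPES pH 7.8, 0.5 mM EDTA, 0.1 mg/ml BSA, 1 mM TCEP, 0.01% Tween-20.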
Further: nearly all actives have a fitted effect of over 60% in size.
Potency means the concentration at half of the fitted maximal effect.

Question: How did the Potency turn out when `COc1ccc(/C=N/NC(=O)c2nn(-c3ccc(Cl)cc3)c(=O)c3c(N)scc23)cc1` was run?
Answer: inconclusive: 8.91 µM [inhibitor, partial curve]

Question: How did the Potency turn out when `O=c1[nH]cnc2c1ncn2[C@@H]1O[C@H](COS(=O)(=O)O)[C@@H](O)[C@H]1O` was run?
Answer: inconclusive: 0.251 µM [inhibitor, full curve, poor fit]

Question: With `Cc1cccc(C)c1NC(=O)/C(C#N)=C/c1ccsc1` as the compound, how does the Potency read?
Answer: inconclusive: 44.7 µM [inhibitor, partial curve]

Question: How did the Potency turn out when `COc1ccc(-c2oc3ccc(-c4cc(OC)c(OC)c(OC)c4)cc3c2C#Cc2ccsc2)cc1` was run?
Answer: inconclusive: 50.1 µM [inhibitor, partial curve, poor fit]

Question: How did the Potency turn out when `Cc1ccc(OCC(=O)N2CCN(S(C)(=O)=O)CC2)cc1` was run?
Answer: inconclusive: 50.1 µM [inhibitor, partial curve, poor fit]

Question: `Cn1c(=O)c2c(nc(N3CCOCC3)n2Cc2ccccc2F)n(C)c1=O` was tested. Which Potency did it give?
Answer: inconclusive: 2.82 µM [inhibitor, full curve, poor fit]

Question: With `CC(=O)c1ccc(-c2cccc([C@H]3[C@@H]4C=CC[C@@H](C)[C@@H]4C(=O)N3Cc3ccccc3)c2)cc1` as the compound, how does the Potency read?
Answer: inconclusive: 50.1 µM [inhibitor, partial curve, poor fit]

Question: Which Potency does the source give for `COc1ccccc1-c1nnc(Sc2nc([N+](=O)[O-])nn2C)o1` here?
Answer: inactive

Question: How did the Potency turn out when `CC(=O)N1C(=O)/C(=C2\SC(=S)N(NS(=O)(=O)c3ccc(C)cc3)C2=O)c2ccccc21` was run?
Answer: inconclusive: 1.12 µM [inhibitor, full curve, poor fit]

Question: How did the Potency turn out when `Cc1cc(Cl)ccc1NS(=O)(=O)c1c(C(=O)N2CCCCCC2)c(C)n(C)c1C` was run?
Answer: inactive

Question: With `COc1ccc(NC(=O)c2cc(S(=O)(=O)N3CCCC(C)C3)cn2C)c(OC)c1` (stereo not given) as the compound, how does the Potency read?
Answer: inconclusive: 50.1 µM [inhibitor, partial curve, poor fit]

Question: With `O=C(Nc1ccc2ccccc2n1)c1ccccc1Br` as the compound, how does the Potency read?
Answer: inconclusive: 44.7 µM [inhibitor, partial curve, poor fit]

Question: How did the Potency turn out when `CC(C)Oc1ccc(C(=O)Nc2nnc3n2CCS3)cc1` was run?
Answer: inconclusive: 447 µM [inhibitor, partial curve, poor fit]

Question: Which Potency does the source give for `O=C1CCCC(O)=C1N=Nc1ccc(C(=O)O)cc1` here?
Answer: inconclusive: 35.5 µM [inhibitor, partial curve]

Question: With `CC(Oc1ccccc1Cl)c1nnc(N)s1` (stereo not given) as the compound, how does the Potency read?
Answer: inconclusive: 5.01 µM [inhibitor, partial curve]

Question: For `Cc1ccc(S(=O)(=O)/N=C2/C=C(Sc3ncn[nH]3)C(=O)c3ccccc32)cc1`, which Potency is on record?
Answer: active: 1 µM

Question: With `O=C(/C=C/c1cccc([N+](=O)[O-])c1)c1ccc([N+](=O)[O-])o1` as the compound, how does the Potency read?
Answer: inconclusive: 12.6 µM [inhibitor, partial curve, poor fit]

Question: How did the Potency turn out when `O=c1[nH][nH]c2c(N=Cc3ccccc3O)ccc(F)c12` was run?
Answer: active: 28.2 µM

Question: Which Potency does the source give for `O=S(=O)(c1cccc(Cl)c1)n1c(/C=C/c2ccccc2Cl)nc2ccccc21` here?
Answer: inconclusive: 2.24 µM [inhibitor, partial curve, poor fit]

Question: Which Potency does the source give for `Cc1cc(C)c(S(=O)(=O)NCC2CCC(C(=O)NCCc3ccccc3)CC2)c(C)c1` (stereo not given) here?
Answer: inconclusive: 3.98 µM [inhibitor, full curve]

Question: For `COc1cccc2c1cc1c(=O)n(CC(=O)N3CCN(c4cccc(Cl)c4)CC3)nc(C)n12`, which Potency is on record?
Answer: inactive

Question: For `COc1ccc(CN(CC(=O)NC(C)C)C(=O)CCC(=O)Nc2nccs2)cc1`, which Potency is on record?
Answer: inactive

Question: Which Potency does the source give for `O=C(CN1C(=O)c2cccnc2Oc2ccc(Cl)cc21)NCCC1=CCCCC1` here?
Answer: inconclusive: 0.251 µM [inhibitor, full curve, poor fit]

Question: For `Cc1cccc(Nc2ncccc2C(=O)NCc2cccs2)c1C`, which Potency is on record?
Answer: inconclusive: 22.4 µM [inhibitor, partial curve]

Question: With `Nc1cc(=O)[nH]c(SCC(=O)Nc2ccc(S(=O)(=O)N3CCCC3)cc2)n1` as the compound, how does the Potency read?
Answer: inconclusive: 0.251 µM [inhibitor, full curve, poor fit]

Question: For `C[C@H](NC(=O)c1[nH]cnc1C(=O)Nc1cccc(Cl)c1)c1ccccc1`, which Potency is on record?
Answer: inconclusive: 0.891 µM [inhibitor, full curve]

Question: Which Potency does the source give for `O=C(COC(=O)c1ccc([N+](=O)[O-])o1)NC1CCCC1` here?
Answer: inconclusive: 44.7 µM [inhibitor, partial curve, poor fit]

Question: How did the Potency turn out when `CCCCSc1nnc(-c2ccc(C)cc2)c2ccccc12` was run?
Answer: inconclusive: 39.8 µM [inhibitor, partial curve]

Question: With `CN(C(=O)c1cccc(NC(=O)Cc2ccc(NC(=O)C3CCN(C(=O)C4CC4)CC3)cc2)c1)C1CCCCC1` as the compound, how does the Potency read?
Answer: inactive

Question: How did the Potency turn out when `CN(CC(=O)Nc1ccc(F)cc1)C(=O)c1cc(-c2cccs2)nn1-c1ccccc1` was run?
Answer: inconclusive: 35.5 µM [inhibitor, partial curve]

Question: `O=C1c2oc3ccccc3c(=O)c2C(c2ccc(O)cc2)N1Cc1ccc2c(c1)OCO2` (stereo not given) was tested. Which Potency did it give?
Answer: inactive

Question: With `COc1ccc(NC(=O)CSc2nc(O)cc(=O)[nH]2)c(OC)c1` as the compound, how does the Potency read?
Answer: inactive

Question: For `CCOc1ccc(N(CC(=O)N2CCN(c3ccccc3)CC2)S(=O)(=O)c2c(C)noc2C)cc1`, which Potency is on record?
Answer: inconclusive: 0.282 µM [inhibitor, full curve]

Question: Which Potency does the source give for `Oc1ccc(Cl)cc1C1=NNC(c2cccs2)C1` (stereo not given) here?
Answer: inconclusive: 39.8 µM [inhibitor, partial curve]

Question: With `CCN1CCN(CCCNC(=O)c2cnn(-c3ccccc3Cl)c2C2CCN(C(=O)OC(C)(C)C)CC2)CC1` as the compound, how does the Potency read?
Answer: inconclusive: 31.6 µM [inhibitor, partial curve]

Question: Which Potency does the source give for `Cc1ccc(N=C2N=C(N)c3ccccc32)cc1C` here?
Answer: inconclusive: 4.47 µM [inhibitor, full curve, poor fit]

Question: `Cc1oc(-c2ccc(-c3ccccc3)cc2)nc1CN(C)C1CCOC1` (stereo not given) was tested. Which Potency did it give?
Answer: inconclusive: 31.6 µM [inhibitor, partial curve]

Question: With `COc1ccc(C(C)=O)cc1CSc1ccccn1` as the compound, how does the Potency read?
Answer: inactive

Question: With `COc1cc(/C=C(/C#N)C(=O)Nc2ccccc2)ccc1OCc1ccc(C(=O)O)cc1` as the compound, how does the Potency read?
Answer: inconclusive: 31.6 µM [inhibitor, partial curve]

Question: `CCC1=C(OC(=O)N(CC)CC)N2C(=O)OC(=NCC3CC3)[C@]2(C)[C@H]2C1=CC[C@H]1C(=O)N(CC)C(=O)[C@H]12` was tested. Which Potency did it give?
Answer: inconclusive: 44.7 µM [inhibitor, partial curve, poor fit]

Question: For `COc1ccc(C(=O)CCS(=O)(=O)c2ccc(C)cc2)cc1`, which Potency is on record?
Answer: inactive

Question: `Cc1ccc(S(=O)(=O)CC(=O)Nc2c(C)n(C)n(-c3ccccc3)c2=O)cc1` was tested. Which Potency did it give?
Answer: inconclusive: 12.6 µM [inhibitor, partial curve, poor fit]

Question: Which Potency does the source give for `COc1ccc(/C=N/Nc2ccc(C(=O)O)cc2)cc1OC` here?
Answer: inactive

Question: `c1ccc(CNc2ncnc3c2cnn3Cc2ccccc2)cc1` was tested. Which Potency did it give?
Answer: inactive

Question: Which Potency does the source give for `COc1ccc(NC(=O)c2oc3ccccc3c2NC(=O)Cc2coc3cc(C)ccc23)cc1` here?
Answer: inconclusive: 3.98 µM [inhibitor, single point]

Question: How did the Potency turn out when `COC(=O)c1ccc(NC(=O)CN(c2ccc(C)cc2)S(=O)(=O)c2c(C)nn(C)c2C)cc1` was run?
Answer: inconclusive: 1.41 µM [inhibitor, partial curve]

Question: With `Cc1ccc(CNC(=O)CN2C(=O)CSc3c2c(C)nn3-c2ccccc2)cc1` as the compound, how does the Potency read?
Answer: inconclusive: 50.1 µM [inhibitor, partial curve, poor fit]

Question: Which Potency does the source give for `CCn1c(=O)c2cc(C(=O)NC3CCC(C)CC3)sc2c2ccccc21` (stereo not given) here?
Answer: inconclusive: 39.8 µM [inhibitor, partial curve, poor fit]

Question: With `Cc1ccc(NC(=O)c2oc3ccc(S(=O)(=O)N4CCCCCC4)cc3c2C)c(C)c1` as the compound, how does the Potency read?
Answer: inconclusive: 2.51 µM [inhibitor, partial curve]

Question: How did the Potency turn out when `CCN(CC(=O)Nc1c(F)cccc1F)C(=O)/C=C/c1ccc2ccccc2n1` was run?
Answer: inconclusive: 44.7 µM [inhibitor, partial curve, poor fit]

Question: `CCN(CC)C(=O)[C@H]1C[C@H](CC(=O)NCc2ccc(OC)c(OC)c2)C(=O)N2CCc3c([nH]c4cc(CCC(=O)N(C)C)ccc34)[C@]12C` was tested. Which Potency did it give?
Answer: inconclusive: 5.01 µM [inhibitor, partial curve]

Question: With `CN(C(=O)c1cc2c(Cl)nc3ccccc3c2s1)c1cccc(C(F)(F)F)c1` as the compound, how does the Potency read?
Answer: inconclusive: 5.01 µM [inhibitor, full curve]

Question: `COc1ccc(NC(=O)Nc2cccc3c2O[C@H](CN(C)S(=O)(=O)c2ccccc2)[C@@H](C)CN([C@H](C)CO)C3=O)cc1` was tested. Which Potency did it give?
Answer: inconclusive: 0.126 µM [inhibitor, full curve, poor fit]

Question: For `CNC(=S)N1N=C(c2ccc(Br)cc2)CC1c1ccc(N(C)C)cc1` (stereo not given), which Potency is on record?
Answer: inconclusive: 50.1 µM [inhibitor, partial curve, poor fit]

Question: With `Cc1ccc(-n2ncc(C#N)c2/N=C/N2CCCCCC2)cc1` as the compound, how does the Potency read?
Answer: inconclusive: 35.5 µM [inhibitor, partial curve]

Question: How did the Potency turn out when `COc1ccc(/C=N\NC(=O)c2cc3c(ccc4ccccc43)o2)cc1O` was run?
Answer: inconclusive: 63.1 µM [inhibitor, partial curve, poor fit]

Question: How did the Potency turn out when `N#Cc1nc(COc2ccccc2Cl)oc1NCCc1ccccc1` was run?
Answer: inconclusive: 15.8 µM [inhibitor, partial curve, poor fit]

Question: For `CCc1cccc(C)c1NC(=O)C1CCN(S(=O)(=O)c2c(C)noc2/C=C/c2c(C)cc(C)cc2C)CC1`, which Potency is on record?
Answer: inconclusive: 11.2 µM [inhibitor, full curve, poor fit]

Question: For `COc1ccc(Nc2nccc(-c3ccc(C#N)cc3)n2)cc1`, which Potency is on record?
Answer: inactive

Question: Which Potency does the source give for `CCOC(=O)c1ccc(NC(=O)CSc2nc(-c3ccc(OC)cc3)cc(C(F)(F)F)c2C#N)cc1` here?
Answer: inconclusive: 39.8 µM [inhibitor, partial curve]
